Results reported in the supplement of paper PMC10849652.
This is one part of the list.

Protein sequences, listed by entry. Tags and fused reporters are not part of them. Lines headed by an entry give the natural chain unless they say otherwise; changes in a name come on top.
UniProt O95059: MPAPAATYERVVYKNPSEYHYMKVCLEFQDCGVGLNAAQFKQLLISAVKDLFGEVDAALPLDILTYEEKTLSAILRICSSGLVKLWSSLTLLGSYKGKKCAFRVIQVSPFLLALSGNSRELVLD
UniProt P27694, whole entry, looked up: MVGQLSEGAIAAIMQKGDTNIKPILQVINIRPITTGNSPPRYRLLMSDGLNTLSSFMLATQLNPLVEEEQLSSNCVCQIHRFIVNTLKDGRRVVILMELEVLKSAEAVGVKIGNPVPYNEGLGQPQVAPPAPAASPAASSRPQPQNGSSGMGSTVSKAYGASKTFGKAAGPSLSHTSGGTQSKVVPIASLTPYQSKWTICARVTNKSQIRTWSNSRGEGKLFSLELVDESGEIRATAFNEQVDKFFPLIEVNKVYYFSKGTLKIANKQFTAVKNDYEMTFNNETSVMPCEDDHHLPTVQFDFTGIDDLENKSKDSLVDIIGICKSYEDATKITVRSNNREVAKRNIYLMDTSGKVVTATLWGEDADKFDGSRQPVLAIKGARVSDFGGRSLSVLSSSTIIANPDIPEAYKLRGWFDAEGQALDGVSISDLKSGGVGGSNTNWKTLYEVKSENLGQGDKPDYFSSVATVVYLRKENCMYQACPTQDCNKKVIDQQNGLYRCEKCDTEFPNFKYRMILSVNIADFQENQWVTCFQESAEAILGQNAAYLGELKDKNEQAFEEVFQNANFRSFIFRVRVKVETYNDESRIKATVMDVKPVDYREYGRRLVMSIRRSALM
UniProt Q9H4A4: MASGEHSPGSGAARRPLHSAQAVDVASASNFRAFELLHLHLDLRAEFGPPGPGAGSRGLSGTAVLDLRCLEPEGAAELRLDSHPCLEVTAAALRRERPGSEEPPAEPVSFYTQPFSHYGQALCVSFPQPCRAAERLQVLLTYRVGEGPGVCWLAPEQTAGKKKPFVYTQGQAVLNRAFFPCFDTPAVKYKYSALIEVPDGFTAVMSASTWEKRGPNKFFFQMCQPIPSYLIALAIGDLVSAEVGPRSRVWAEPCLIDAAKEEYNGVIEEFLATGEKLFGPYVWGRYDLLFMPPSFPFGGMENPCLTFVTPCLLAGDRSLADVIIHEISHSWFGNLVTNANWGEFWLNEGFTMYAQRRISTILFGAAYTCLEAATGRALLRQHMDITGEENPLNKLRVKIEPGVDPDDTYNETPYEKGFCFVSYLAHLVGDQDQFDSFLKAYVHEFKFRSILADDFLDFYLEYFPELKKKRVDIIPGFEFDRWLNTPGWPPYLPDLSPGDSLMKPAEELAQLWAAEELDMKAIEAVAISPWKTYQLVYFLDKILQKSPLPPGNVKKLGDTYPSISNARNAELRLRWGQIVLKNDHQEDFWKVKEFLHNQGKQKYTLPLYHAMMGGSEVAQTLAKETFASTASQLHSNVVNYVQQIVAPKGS
UniProt P35244: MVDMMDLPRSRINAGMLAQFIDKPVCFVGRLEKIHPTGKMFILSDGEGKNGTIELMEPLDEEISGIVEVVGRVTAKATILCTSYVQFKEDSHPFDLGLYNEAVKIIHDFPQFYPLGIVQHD
UniProt Q9H6T3, whole entry, looked up: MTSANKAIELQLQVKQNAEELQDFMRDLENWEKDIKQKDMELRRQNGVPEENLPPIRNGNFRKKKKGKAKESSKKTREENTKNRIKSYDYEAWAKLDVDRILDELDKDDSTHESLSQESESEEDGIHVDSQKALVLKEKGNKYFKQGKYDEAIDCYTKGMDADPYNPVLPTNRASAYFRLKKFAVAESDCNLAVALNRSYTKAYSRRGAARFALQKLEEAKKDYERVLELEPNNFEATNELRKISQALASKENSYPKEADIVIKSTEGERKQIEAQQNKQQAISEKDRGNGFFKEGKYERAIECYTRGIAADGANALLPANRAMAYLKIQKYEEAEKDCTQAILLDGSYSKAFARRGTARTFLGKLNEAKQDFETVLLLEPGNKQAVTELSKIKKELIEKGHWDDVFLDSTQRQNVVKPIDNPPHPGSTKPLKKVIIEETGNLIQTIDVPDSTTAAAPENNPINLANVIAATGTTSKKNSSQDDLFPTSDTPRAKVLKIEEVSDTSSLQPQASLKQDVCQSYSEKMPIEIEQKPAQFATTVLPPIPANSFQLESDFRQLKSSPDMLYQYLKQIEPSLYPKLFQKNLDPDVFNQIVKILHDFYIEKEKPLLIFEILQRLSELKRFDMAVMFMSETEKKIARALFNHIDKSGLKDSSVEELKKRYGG
UniProt P78346: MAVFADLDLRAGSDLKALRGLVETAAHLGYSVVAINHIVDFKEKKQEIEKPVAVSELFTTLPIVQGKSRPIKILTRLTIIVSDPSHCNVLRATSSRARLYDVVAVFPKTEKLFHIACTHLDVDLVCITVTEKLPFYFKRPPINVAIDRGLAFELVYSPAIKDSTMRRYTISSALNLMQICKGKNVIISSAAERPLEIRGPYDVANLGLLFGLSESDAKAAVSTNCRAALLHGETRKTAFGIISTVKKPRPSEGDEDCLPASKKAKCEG
UniProt Q9HB90, whole entry, looked up: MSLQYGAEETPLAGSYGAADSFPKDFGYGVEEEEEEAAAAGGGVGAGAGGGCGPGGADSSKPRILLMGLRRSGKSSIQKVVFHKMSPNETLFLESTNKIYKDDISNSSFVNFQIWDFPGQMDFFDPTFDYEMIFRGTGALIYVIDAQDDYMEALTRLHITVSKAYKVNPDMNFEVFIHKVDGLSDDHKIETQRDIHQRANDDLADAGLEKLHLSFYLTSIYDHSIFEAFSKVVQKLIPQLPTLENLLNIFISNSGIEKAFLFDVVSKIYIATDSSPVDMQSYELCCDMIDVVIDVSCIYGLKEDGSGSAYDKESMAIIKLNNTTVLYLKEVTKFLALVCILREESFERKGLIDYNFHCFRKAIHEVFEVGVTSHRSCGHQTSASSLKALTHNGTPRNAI
UniProt Q15349, whole entry, looked up: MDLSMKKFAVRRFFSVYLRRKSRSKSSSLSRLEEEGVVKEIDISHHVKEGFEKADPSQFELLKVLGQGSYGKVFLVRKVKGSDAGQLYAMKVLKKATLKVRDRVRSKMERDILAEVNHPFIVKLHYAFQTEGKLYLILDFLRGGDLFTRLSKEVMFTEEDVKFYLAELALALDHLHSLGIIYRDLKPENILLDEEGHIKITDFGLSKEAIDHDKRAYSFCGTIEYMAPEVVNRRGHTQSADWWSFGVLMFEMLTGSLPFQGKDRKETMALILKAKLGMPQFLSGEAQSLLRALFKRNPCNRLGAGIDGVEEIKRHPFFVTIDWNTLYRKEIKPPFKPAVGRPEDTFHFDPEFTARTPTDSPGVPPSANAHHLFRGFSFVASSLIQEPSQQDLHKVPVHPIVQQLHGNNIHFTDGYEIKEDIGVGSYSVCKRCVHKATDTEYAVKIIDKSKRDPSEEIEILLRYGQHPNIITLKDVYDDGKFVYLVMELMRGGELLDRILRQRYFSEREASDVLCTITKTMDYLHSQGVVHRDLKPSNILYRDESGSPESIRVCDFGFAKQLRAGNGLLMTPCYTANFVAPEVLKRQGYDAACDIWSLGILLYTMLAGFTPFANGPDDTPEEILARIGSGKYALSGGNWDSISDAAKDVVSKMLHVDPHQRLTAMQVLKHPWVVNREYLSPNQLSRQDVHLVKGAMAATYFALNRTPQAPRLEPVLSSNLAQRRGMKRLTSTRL
UniProt Q8N122, whole entry, looked up: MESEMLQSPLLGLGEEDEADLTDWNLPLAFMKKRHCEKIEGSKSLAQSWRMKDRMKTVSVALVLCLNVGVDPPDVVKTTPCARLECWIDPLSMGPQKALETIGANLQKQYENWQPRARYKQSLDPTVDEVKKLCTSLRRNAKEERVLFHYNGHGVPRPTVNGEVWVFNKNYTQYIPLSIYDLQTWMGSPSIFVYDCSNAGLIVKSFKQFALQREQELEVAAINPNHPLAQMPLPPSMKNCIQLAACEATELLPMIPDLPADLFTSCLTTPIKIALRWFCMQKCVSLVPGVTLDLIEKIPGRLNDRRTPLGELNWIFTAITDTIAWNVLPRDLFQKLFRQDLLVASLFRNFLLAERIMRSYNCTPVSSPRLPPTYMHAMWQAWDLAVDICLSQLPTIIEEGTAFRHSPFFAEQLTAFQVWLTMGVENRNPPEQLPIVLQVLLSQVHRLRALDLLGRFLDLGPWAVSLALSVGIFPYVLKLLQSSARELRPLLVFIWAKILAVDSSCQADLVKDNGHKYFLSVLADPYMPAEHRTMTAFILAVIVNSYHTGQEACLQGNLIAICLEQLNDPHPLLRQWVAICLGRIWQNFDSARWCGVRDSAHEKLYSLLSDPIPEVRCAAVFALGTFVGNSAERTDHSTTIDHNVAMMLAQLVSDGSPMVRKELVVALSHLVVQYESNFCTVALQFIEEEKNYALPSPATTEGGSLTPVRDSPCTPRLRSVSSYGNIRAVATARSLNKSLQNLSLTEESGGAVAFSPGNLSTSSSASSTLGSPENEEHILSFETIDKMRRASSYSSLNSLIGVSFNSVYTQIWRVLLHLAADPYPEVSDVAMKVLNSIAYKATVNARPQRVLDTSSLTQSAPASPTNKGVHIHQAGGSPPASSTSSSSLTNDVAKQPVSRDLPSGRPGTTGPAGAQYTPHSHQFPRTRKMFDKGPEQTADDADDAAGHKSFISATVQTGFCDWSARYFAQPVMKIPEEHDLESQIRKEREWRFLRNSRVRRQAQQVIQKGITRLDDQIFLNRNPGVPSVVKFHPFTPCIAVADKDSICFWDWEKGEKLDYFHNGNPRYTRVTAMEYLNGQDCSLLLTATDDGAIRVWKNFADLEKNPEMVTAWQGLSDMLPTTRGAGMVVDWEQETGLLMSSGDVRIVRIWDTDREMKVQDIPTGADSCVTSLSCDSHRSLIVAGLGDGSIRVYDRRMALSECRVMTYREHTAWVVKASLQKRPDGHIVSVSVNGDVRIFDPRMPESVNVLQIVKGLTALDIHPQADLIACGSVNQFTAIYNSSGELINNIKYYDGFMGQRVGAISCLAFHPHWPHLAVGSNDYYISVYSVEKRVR
UniProt P62070: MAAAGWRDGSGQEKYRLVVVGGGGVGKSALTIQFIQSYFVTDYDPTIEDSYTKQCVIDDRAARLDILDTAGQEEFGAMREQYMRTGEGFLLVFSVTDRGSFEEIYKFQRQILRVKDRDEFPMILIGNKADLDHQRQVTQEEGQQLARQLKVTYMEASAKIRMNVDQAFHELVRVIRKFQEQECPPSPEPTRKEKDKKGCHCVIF
UniProt Q96S38: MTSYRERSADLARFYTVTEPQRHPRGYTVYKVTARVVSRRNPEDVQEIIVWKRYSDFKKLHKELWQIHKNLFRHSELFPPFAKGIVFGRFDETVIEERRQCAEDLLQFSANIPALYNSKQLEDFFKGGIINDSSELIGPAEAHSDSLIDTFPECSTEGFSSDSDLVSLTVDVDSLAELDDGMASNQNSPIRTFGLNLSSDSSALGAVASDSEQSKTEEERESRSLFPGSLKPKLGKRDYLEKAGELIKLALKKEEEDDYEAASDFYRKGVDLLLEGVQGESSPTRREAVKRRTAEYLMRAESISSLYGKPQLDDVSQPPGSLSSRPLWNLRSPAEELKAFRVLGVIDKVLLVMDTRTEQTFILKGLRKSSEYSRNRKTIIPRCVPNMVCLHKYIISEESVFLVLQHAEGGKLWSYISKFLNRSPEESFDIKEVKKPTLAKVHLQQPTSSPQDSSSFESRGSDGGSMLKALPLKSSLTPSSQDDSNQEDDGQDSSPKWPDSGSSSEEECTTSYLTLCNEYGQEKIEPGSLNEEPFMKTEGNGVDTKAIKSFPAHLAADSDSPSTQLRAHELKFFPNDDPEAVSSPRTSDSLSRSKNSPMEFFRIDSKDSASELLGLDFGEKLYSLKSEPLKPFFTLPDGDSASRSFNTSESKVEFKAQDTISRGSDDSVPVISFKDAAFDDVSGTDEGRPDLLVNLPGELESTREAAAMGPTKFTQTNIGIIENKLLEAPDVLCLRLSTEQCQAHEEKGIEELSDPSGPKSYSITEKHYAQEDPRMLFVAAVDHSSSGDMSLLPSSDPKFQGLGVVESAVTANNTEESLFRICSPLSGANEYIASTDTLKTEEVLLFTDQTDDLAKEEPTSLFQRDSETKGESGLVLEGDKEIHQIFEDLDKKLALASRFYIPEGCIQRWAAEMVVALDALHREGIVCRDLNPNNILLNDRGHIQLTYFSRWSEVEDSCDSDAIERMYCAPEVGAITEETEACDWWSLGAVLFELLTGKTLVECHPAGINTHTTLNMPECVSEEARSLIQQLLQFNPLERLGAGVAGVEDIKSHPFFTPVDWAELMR

Legend:
Assay in all cases: log2 fold change, soluble protein after heating vs DMSO (PISA); higher = thermal stabilisation; K562 cells, 10 uM, 30 min; active = over 0.2 and 3.5 SD of the protein, either way, in both replicates (recomputed)
[1] = compound: CC[C@@H]1C(=O)N(C)c2cnc(Nc3ccc(C(=O)NC4CCN(C)CC4)cc3OC)nc2N1C1CCCC1
Method in brief: (§1)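 For each measurement, 10 μM compound was applied for 30 min to K562 cells at 2×10^6 cells/mL. Aliquots were heated for 3 min across 48°C-58°C, pooled, and extracted in PBS with 0.5% NP-40 at 4°C; the supernatant after 21,000xg for 90 min was soluble protein. This was quantified by TMTpro 16plex LC-MS/MS with channel sums equalised, and thermal stability was reported relative to control samples from duplicates, on a log2 fold-change scale.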

volasertib = compound: CC[C@@H]1C(=O)N(C)c2cnc(Nc3ccc(C(=O)N[C@H]4CC[C@H](N5CCN(CC6CC6)CC5)CC4)cc3OC)nc2N1C(C)C [volasertib]
Method in brief: as §1

[2] = compound: CC[C@H](C)N1C=C(C2=C(C=C(C=C21)C3=CN=C(C=C3)N4CCNCC4)C(=O)NCC5=C(C=C(NC5=O)C)C)C
Method in brief: as §1

epoxomicin = compound: CC[C@H](C)[C@@H](C(=O)N[C@@H]([C@@H](C)O)C(=O)N[C@@H](CC(C)C)C(=O)[C@]1(CO1)C)NC(=O)[C@H]([C@@H](C)CC)N(C)C(=O)C [epoxomicin]
Method in brief: as §1

[3] = compound: CCn1cc(-c2ccnc3[nH]c(-c4cccc(CN(C)C)c4)cc23)c(-c2ccc(NC(=O)N(C)C)cc2)n1
Method in brief: as §1

[4] = compound: CN(C)CC(=O)Nc1ccc2[nH]c(=O)c3ccccc3c2c1
Method in brief: as §1

[5] = compound: CN1C2=C(C3=C1C(=O)N(N=C3)CC4=CC(=CC=C4)N)SC(=C2)S(=O)C
Method in brief: as §1

[6] = compound: CN1CCC(CNc2ccc3ncc(-c4cccc(OC(F)(F)F)c4)n3n2)CC1
Method in brief: as §1

[7] = compound: CCn1c(C(=O)N(C2CC2)C2CC2)cc2c3c(ncn3C)c(Nc3cc(C)n(C)n3)nc21
Method in brief: as §1

rosiglitazone = compound: CN(CCOC1=CC=C(C=C1)C[C@H]2C(=O)NC(=O)S2)C3=CC=CC=N3 (racemic) [rosiglitazone]
Method in brief: as §1

Target	log2 fold change [1]	log2 fold change (volasertib)	log2 fold change [2]	log2 fold change (epoxomicin)	log2 fold change [3]	log2 fold change [4]	log2 fold change [5]	log2 fold change [6]	log2 fold change [7]	log2 fold change (rosiglitazone)
RPS15 (UniProt P62841)	inactive: 0.2	inactive: 0.294	inactive: -0.017	inactive: -0.056	inactive: 0.061	inactive: -0.099	inactive: 0.164	inactive: 0.02		
RPL10A (UniProt P62906)	inactive: 0.275	inactive: 0.798	inactive: 0	inactive: -0.659	inactive: 0.291	inactive: -0.286	inactive: 0.546	inactive: 0.441	inactive: 0.109	inactive: -0.339
RPP14 (UniProt O95059)	inactive: 0.079	inactive: 0.07	inactive: -0.048	inactive: -0.06	inactive: 0.08	inactive: -0.04	inactive: -0.076	active: 0.244		
RPS13 (UniProt P62277)	inactive: 0.219	inactive: 0.567	inactive: 0.035	inactive: -0.324	inactive: 0.236	inactive: -0.066	inactive: 0.219	inactive: 0.243		
RPA1 (UniProt P27694)	inactive: -0.108	active: -0.326	inactive: 0.083	inactive: 0.09	inactive: -0.02	inactive: 0.044	inactive: -0.048	inactive: -0.079		
RNPEP (UniProt Q9H4A4)	inactive: 0.015	active: -0.303	inactive: 0.078	inactive: 0.042	inactive: -0.09	inactive: 0.034	inactive: -0.036	inactive: -0.119		
RPL10 (UniProt F8W7C6)	inactive: 0.246	inactive: -0.152	inactive: -0.048	inactive: 0.017	inactive: 0.152	inactive: -0.073		inactive: 0.28	inactive: -0.198	inactive: -0.023
RPS27A (UniProt P62979)	inactive: -0.061	inactive: 0.36	inactive: 0.05	inactive: -0.078	inactive: 0.033	inactive: -0.153	inactive: 0.155	inactive: 0.194		
RPA3 (UniProt P35244)	inactive: -0.006	inactive: -0.056	inactive: -0.002	inactive: 0.06	inactive: -0.044	inactive: 0.163	inactive: -0.054	inactive: 0.039		
RPAP3 (UniProt Q9H6T3)	inactive: -0.025	inactive: -0.104	inactive: 0.043	inactive: -0.006	inactive: -0.035	inactive: 0.029	inactive: 0.027	inactive: -0.034	inactive: -0.045	inactive: 0.039
RPS21 (UniProt P63220)	inactive: 0.089	active: 0.238	inactive: -0.04	inactive: 0.028	inactive: 0.055	inactive: -0.045	inactive: -0.004	inactive: 0.073		
RPP30 isoform 2 (UniProt P78346)	inactive: 0.103	inactive: 0.126	inactive: -0.001	inactive: -0.032	inactive: -0.017	inactive: -0.099	inactive: 0.064	inactive: 0.053	inactive: 0.009	inactive: -0.039
RPL23A (UniProt P62750)	inactive: 0.152	inactive: 0.41	inactive: 0.024	inactive: -0.285	inactive: 0.198	inactive: -0.118	inactive: 0.277	inactive: 0.276	inactive: 0.037	inactive: -0.159
RPS4X (UniProt P62701)	inactive: 0.173	inactive: 0.419	inactive: 0.056	inactive: -0.22	inactive: 0.108	inactive: -0.089	inactive: 0.177	inactive: 0.148		
RPS9 (UniProt P46781)	inactive: 0.203	inactive: 0.339	inactive: 0.02	inactive: -0.24	inactive: 0.088	inactive: -0.095	inactive: 0.174	inactive: 0.146		
RRAGC (UniProt Q9HB90)	inactive: -0.009	inactive: -0.003	inactive: -0.051	inactive: -0.045	inactive: 0	inactive: -0.024	inactive: -0.067	inactive: -0.177		

Reprinted at random: 2 records from the list
Target	log2 fold change [1]	log2 fold change (volasertib)	log2 fold change [2]	log2 fold change (epoxomicin)	log2 fold change [3]	log2 fold change [4]	log2 fold change [5]	log2 fold change [6]	log2 fold change [7]	log2 fold change (rosiglitazone)
RPL10 (UniProt F8W7C6)	inactive: 0.246	inactive: -0.152	inactive: -0.048	inactive: 0.017	inactive: 0.152	inactive: -0.073		inactive: 0.28	inactive: -0.198	inactive: -0.023
RPA3 (UniProt P35244)	inactive: -0.006	inactive: -0.056	inactive: -0.002	inactive: 0.06	inactive: -0.044	inactive: 0.163	inactive: -0.054	inactive: 0.039		

Additional records follow:

Target	log2 fold change [1]	log2 fold change (volasertib)	log2 fold change [2]	log2 fold change (epoxomicin)	log2 fold change [3]	log2 fold change [4]	log2 fold change [5]	log2 fold change [6]	log2 fold change [7]	log2 fold change (rosiglitazone)
RPS3 (UniProt P23396)	inactive: 0.147	inactive: 0.34	inactive: 0.011	inactive: -0.125	inactive: 0.125	inactive: -0.071	inactive: 0.085	inactive: 0.045		
RPL36 (UniProt Q9Y3U8)	inactive: 0.256	inactive: 0.795	inactive: -0.04	inactive: -0.611	inactive: 0.294	inactive: -0.236	inactive: 0.555	inactive: 0.448	inactive: 0.056	inactive: -0.295
RPL32 (UniProt P62910)	inactive: 0.225	inactive: 0.694	inactive: 0.001	inactive: -0.364	inactive: 0.046	inactive: -0.195	inactive: 0.418	inactive: 0.417	inactive: 0.038	inactive: -0.266
RPS6KA2 isoform 2 (UniProt Q15349)	inactive: -0.136	inactive: -0.179	inactive: 0.034	inactive: 0.041	inactive: -0.126	inactive: 0.025	inactive: -0.038	inactive: -0.313		
RPS18 (UniProt P62269)	inactive: 0.158	inactive: 0.3	inactive: -0.011	inactive: -0.111	inactive: 0.057	inactive: -0.036	inactive: 0.096	inactive: 0.11		
RPS2 (UniProt P15880)	inactive: 0.168	inactive: 0.348	inactive: 0.021	inactive: -0.191	inactive: 0.119	inactive: -0.108	inactive: 0.195	inactive: 0.086		
RPL18A (UniProt Q02543)	inactive: 0.304	inactive: 0.862	inactive: -0.002	inactive: -0.705	inactive: 0.359	inactive: -0.32	inactive: 0.582	inactive: 0.409	inactive: 0.097	inactive: -0.332
RPS8 (UniProt P62241)	inactive: 0.146	inactive: 0.499	inactive: 0.011	inactive: -0.316	inactive: 0	inactive: -0.171	inactive: 0.251	inactive: 0.221	inactive: 0.089	inactive: -0.105
RPTOR (UniProt Q8N122)	inactive: -0.116	active: -0.237	inactive: 0.064	inactive: 0.034	inactive: -0.08	inactive: 0.03	inactive: -0.037	inactive: -0.197		
RRAS2 isoform 4 (UniProt P62070)	inactive: 0.061	inactive: 0.124	inactive: -0.048	inactive: 0.063	inactive: 0.014	inactive: -0.013	inactive: -0.064	active: 0.207		
RPL38 (UniProt P63173)	inactive: 0.076	inactive: 0.187	inactive: 0.033	inactive: -0.062	inactive: -0.03	inactive: -0.02	inactive: -0.004	inactive: 0.052		
RPS12 (UniProt P25398)	inactive: 0.108	inactive: 0.219	inactive: 0.038	inactive: -0.021	inactive: 0.063	inactive: -0.028	inactive: 0.064	inactive: 0.079		
RPS6KC1 (UniProt Q96S38)	inactive: 0.126	inactive: -0.072	inactive: -0.02	inactive: -0.016	inactive: -0.06	inactive: 0.032	inactive: -0.283	inactive: 0	inactive: 0.02	inactive: 0.055
RPL19 (UniProt P84098)	inactive: 0.205	inactive: 0.506	inactive: -0.024	inactive: -0.485	inactive: 0.344	inactive: -0.179	inactive: 0.307	inactive: 0.429	inactive: -0.004	inactive: -0.232
RPS16 (UniProt P62249)	inactive: 0.125	inactive: 0.388	inactive: 0.044	inactive: -0.118	inactive: 0.124	inactive: -0.085	inactive: 0.112	inactive: 0.1		
